Our source for the binding values is patent publication US20080096210A1.

Amino acid sequences for entries named in this document (tags omitted).
UniProt P53350: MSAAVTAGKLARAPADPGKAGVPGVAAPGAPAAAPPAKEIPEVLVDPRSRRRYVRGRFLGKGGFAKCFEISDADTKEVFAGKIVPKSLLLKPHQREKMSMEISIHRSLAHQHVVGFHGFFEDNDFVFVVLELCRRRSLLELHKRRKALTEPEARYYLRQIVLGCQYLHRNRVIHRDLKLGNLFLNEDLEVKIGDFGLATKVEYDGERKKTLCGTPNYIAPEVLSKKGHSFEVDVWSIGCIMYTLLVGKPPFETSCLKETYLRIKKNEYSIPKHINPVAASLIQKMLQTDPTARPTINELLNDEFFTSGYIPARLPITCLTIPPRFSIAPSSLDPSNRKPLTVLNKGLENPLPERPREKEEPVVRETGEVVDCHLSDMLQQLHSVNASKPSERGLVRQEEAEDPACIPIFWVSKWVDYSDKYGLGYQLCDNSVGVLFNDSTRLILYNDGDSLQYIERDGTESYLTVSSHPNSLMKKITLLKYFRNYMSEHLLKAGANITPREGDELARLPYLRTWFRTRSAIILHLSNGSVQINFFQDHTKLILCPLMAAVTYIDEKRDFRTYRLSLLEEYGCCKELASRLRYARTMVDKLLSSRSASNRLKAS

The target in this assay is Human recombinant Plk1 (Invitrogen) (human) (UniProt P53350). The experiment in a line: in vitro kinase assay with recombinant His6-tagged RGC32 and human recombinant Plk1; binding concluded together with the co-immunoprecipitation.

Results are given in words; binding and its absence hold for the method and conditions named. In cells and extracts the contact can be indirect. Some binding calls cover weakened binding; strength is not graded here. Where a sequence is shown, tags or fusion partners need not be part of it.

B1: recombinant His6-tagged RGC32 protein (pET-23d-RGC32, produced in Escherichia coli BL21-CodonPlus (DE3)) (protein, not shown: small tags and cut ends)
chain: MKPPAEDLSDALCEFDAVLADFASPFHERHFHYEEHLERMKRRSSASVSDSSGFSDSESADSLYRNSFSFSDEKLNSPTDSTPALLSATVTPQKAKLGDTKELEAFIADLDKTLASM
Regarding B1, the binding result is on record as “binds”.
